Earlier results, collected in patent publication US9321849B2, “Uranium-chelating peptides and uses thereof” (priority 2003, dated 2016).
Read-outs that look alike come from different tables or passages of the source. At least one read-out could not be matched to a standard name with certainty.

Conditions: background statement, cited from earlier work

In the case of “Paramecium tetraurelia calmodulin: calmodulin with four calcium-binding sites of helix-loop-helix type, background description”, the Kd (read-out: dissociation constants, calcium, high-affinity sites III and IV) is listed as about 1 µM and the Kd (read-out: dissociation constants, calcium, low-affinity sites I and II) is listed as about 10 µM.
